The effect of the compound repeats well; differences between the knockouts mostly do not.
Test system: BT-20
Experiment: relative cell number vs DMSO control (72 h) (% of DMSO); higher = less growth inhibition (more cells)
Protocol: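 QMAP-Seq: a pool of 5 breast cancer cell lines (ZR-75-1, SKBR3, HCC-38, MDA-MB-231, BT-20), each carrying 12 doxycycline-inducible Cas9 sgRNA perturbations (11 knockouts plus non-targeting sgNT), was treated with compounds for 72 h at four 10-fold doses (10 nM-10 uM or 1 nM-1 uM range). Barcodes were amplified and sequenced, and cell number was interpolated from 293T spike-in standard curves. The result is expressed as % of the median of DMSO wells. Two biological replicates.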

CC[C@H](Nc1ncnc2[nH]cnc12)c1nc2cccc(F)c2c(=O)n1-c1ccccc1 [CAL101]
Details	relative cell number
sgRNA knockout: sgATF3, 10 nM	80.5
sgRNA knockout: sgATF3, 100 nM	98.4
sgRNA knockout: sgATF3, 1000 nM	104
sgRNA knockout: sgATF3, 10000 nM	96.3
sgRNA knockout: sgATF4, 10 nM	89.6
sgRNA knockout: sgATF4, 100 nM	94.4
sgRNA knockout: sgATF4, 1000 nM	108
sgRNA knockout: sgATF4, 10000 nM	106
sgRNA knockout: sgATF6, 10 nM	92.4
sgRNA knockout: sgATF6, 100 nM	80.4
sgRNA knockout: sgATF6, 1000 nM	100
sgRNA knockout: sgATF6, 10000 nM	87.8
sgRNA knockout: sgATG7, 10 nM	88.8
sgRNA knockout: sgATG7, 100 nM	90.4
sgRNA knockout: sgATG7, 1000 nM	94.9
sgRNA knockout: sgATG7, 10000 nM	90.5
sgRNA knockout: sgERN1, 10 nM	84.2
sgRNA knockout: sgERN1, 100 nM	83.7
sgRNA knockout: sgERN1, 1000 nM	106
sgRNA knockout: sgERN1, 10000 nM	90.3
sgRNA knockout: sgHSF1, 10 nM	88.4
sgRNA knockout: sgHSF1, 100 nM	90.9
sgRNA knockout: sgHSF1, 1000 nM	98.38
sgRNA knockout: sgHSF1, 10000 nM	116
sgRNA knockout: sgHSF2, 10 nM	96.5
sgRNA knockout: sgHSF2, 100 nM	105
sgRNA knockout: sgHSF2, 1000 nM	100
sgRNA knockout: sgHSF2, 10000 nM	88
sgRNA knockout: sgKEAP1, 10 nM	90
sgRNA knockout: sgKEAP1, 100 nM	87.2
sgRNA knockout: sgKEAP1, 1000 nM	94.2
sgRNA knockout: sgKEAP1, 10000 nM	96.2
sgRNA knockout: sgNFE2L2, 10 nM	73.9
sgRNA knockout: sgNFE2L2, 100 nM	99.8
sgRNA knockout: sgNFE2L2, 1000 nM	101
sgRNA knockout: sgNFE2L2, 10000 nM	102
sgRNA knockout: sgSLC35F2, 10 nM	99.2
sgRNA knockout: sgSLC35F2, 100 nM	98.1
sgRNA knockout: sgSLC35F2, 1000 nM	95.3
sgRNA knockout: sgSLC35F2, 10000 nM	97.5
sgRNA knockout: sgXBP1, 10 nM	92.3
sgRNA knockout: sgXBP1, 100 nM	106
sgRNA knockout: sgXBP1, 1000 nM	93.8
sgRNA knockout: sgXBP1, 10000 nM	98.7

CC(=O)O[C@H]1C(=O)[C@@]2(C)[C@H]([C@H](OC(=O)c3ccccc3)[C@]3(O)C[C@H](OC(=O)[C@H](O)[C@@H](NC(=O)c4ccccc4)c4ccccc4)C(C)=C1C3(C)C)[C@]1(OC(C)=O)CO[C@@H]1C[C@@H]2O [Paclitaxel]
Details	relative cell number
sgRNA knockout: sgATF3, 10 nM	57
sgRNA knockout: sgATF3, 100 nM	19.5
sgRNA knockout: sgATF3, 1000 nM	26.2
sgRNA knockout: sgATF3, 10000 nM	28.4
sgRNA knockout: sgATF4, 10 nM	44.6
sgRNA knockout: sgATF4, 100 nM	25.1
sgRNA knockout: sgATF4, 1000 nM	26.8
sgRNA knockout: sgATF4, 10000 nM	36.1
sgRNA knockout: sgATF6, 10 nM	40.7
sgRNA knockout: sgATF6, 100 nM	24.4
sgRNA knockout: sgATF6, 1000 nM	30.9
sgRNA knockout: sgATF6, 10000 nM	37.2
sgRNA knockout: sgATG7, 10 nM	46.6
sgRNA knockout: sgATG7, 100 nM	18.9
sgRNA knockout: sgATG7, 1000 nM	26.6
sgRNA knockout: sgATG7, 10000 nM	37
sgRNA knockout: sgERN1, 10 nM	47.9
sgRNA knockout: sgERN1, 100 nM	23.7
sgRNA knockout: sgERN1, 1000 nM	30.4
sgRNA knockout: sgERN1, 10000 nM	35.8
sgRNA knockout: sgHSF1, 10 nM	51.5
sgRNA knockout: sgHSF1, 100 nM	21.6
sgRNA knockout: sgHSF1, 1000 nM	23.1
sgRNA knockout: sgHSF1, 10000 nM	32.7
sgRNA knockout: sgHSF2, 10 nM	57.7
sgRNA knockout: sgHSF2, 100 nM	20.8
sgRNA knockout: sgHSF2, 1000 nM	28.4
sgRNA knockout: sgHSF2, 10000 nM	35.1
sgRNA knockout: sgKEAP1, 10 nM	52.2
sgRNA knockout: sgKEAP1, 100 nM	20.9
sgRNA knockout: sgKEAP1, 1000 nM	22.1
sgRNA knockout: sgKEAP1, 10000 nM	30.5
sgRNA knockout: sgNFE2L2, 10 nM	55.3
sgRNA knockout: sgNFE2L2, 100 nM	16.5
sgRNA knockout: sgNFE2L2, 1000 nM	29.7
sgRNA knockout: sgNFE2L2, 10000 nM	30.8
sgRNA knockout: sgSLC35F2, 10 nM	55.1
sgRNA knockout: sgSLC35F2, 100 nM	25.8
sgRNA knockout: sgSLC35F2, 1000 nM	21.2
sgRNA knockout: sgSLC35F2, 10000 nM	41.8
sgRNA knockout: sgXBP1, 10 nM	54.7
sgRNA knockout: sgXBP1, 100 nM	21.1
sgRNA knockout: sgXBP1, 1000 nM	26.4
sgRNA knockout: sgXBP1, 10000 nM	33.3

Source: the supplement of paper PMC7661543
